Results on one molecule are retold here after PMC7447803, “DEPS-1 is required for piRNA-dependent silencing and PIWI condensate organisation in Caenorhabditis elegans” (Nature Communications, 2020).

Results are given in words; binding and its absence hold for the method and conditions named. In cells and extracts the contact can be indirect. A yes stands for co-enrichment or nearness to the bait. Other partners may have been found.

This assay has as its target T1, PRG-1 (endogenous) (C. elegans (endogenous in N2 animals)) (UniProt P90786).
T1 sequence: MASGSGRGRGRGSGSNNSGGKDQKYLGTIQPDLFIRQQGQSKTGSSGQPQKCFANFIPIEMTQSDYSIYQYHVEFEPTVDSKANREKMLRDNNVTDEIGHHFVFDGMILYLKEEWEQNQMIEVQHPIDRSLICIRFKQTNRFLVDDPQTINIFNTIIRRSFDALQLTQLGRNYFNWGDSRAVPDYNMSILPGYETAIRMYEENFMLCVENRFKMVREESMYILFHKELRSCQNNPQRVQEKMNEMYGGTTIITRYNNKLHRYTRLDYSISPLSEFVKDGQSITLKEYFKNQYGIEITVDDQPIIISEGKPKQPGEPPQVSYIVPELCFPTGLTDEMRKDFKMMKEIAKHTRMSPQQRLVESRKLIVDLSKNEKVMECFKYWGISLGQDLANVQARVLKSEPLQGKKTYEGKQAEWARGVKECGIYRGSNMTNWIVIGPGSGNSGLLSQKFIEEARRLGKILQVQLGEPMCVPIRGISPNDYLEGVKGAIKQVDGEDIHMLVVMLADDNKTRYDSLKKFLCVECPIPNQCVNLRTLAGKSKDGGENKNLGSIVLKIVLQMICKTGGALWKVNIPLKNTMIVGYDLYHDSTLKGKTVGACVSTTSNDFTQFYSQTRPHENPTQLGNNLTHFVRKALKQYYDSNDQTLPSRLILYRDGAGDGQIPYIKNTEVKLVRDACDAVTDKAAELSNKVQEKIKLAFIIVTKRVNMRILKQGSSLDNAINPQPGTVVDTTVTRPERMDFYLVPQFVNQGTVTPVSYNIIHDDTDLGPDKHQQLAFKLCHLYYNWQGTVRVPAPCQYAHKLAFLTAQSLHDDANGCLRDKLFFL
As to the kind of experiment: affinity purification with mass spectrometry; anti-PRG-1 antibody pre-coupled to protein A/G matrix, incubated 4 h with lysates of N2 adults (20 mM HEPES pH 7.5, 150 mM NaCl, 0.5% NP-40); controls: prg-1(n4357) lysates and rabbit IgG; LC-MS/MS.

B1: DEPS-1 (endogenous) (protein, UniProt Q9N303 1-619)
chain: MSERQSKYFDYQGIVISSTGQDNQDSETDLVYLIQAHGKAAPKNIMYGVSKCAFVPTNLERNFDNIEEAKNLERRSKIPLKFGEVILWNESDCDHDKRIILHIKREKPIYEASSSRNGLILKVGGVIQPTSTTSFWTPLCTVTMPETEATRAEPDVWLYAWIRFETTMKSGLDPFNMTATFESFDSCDPSDQARVCEAPWNAGSPDSKFGVWRPDPKPADSDDEIDIEPREGWHLPEDKWAEVIKMQLGLYVGERLLICKELSQFDFIIPLQKPFSRGTDKTLIYPAVGEYFHFSAIWSMQHNGFLIYELQPVPLLRQHVTSVNGNLLTRVVPASIRGLFVDKEGTLGLIDDPHHLLSFFEFHPAGYEFLKAMAEVRAVRTSENKSVRYRIVRTSGMSIFENWLRDTQFVVGPVKGIRINEDTVICAKHPNVYFKIPNNLKEGIPIGGGVQFVGKRQAGVDSEIMITECSPCPAFTCKNYSVSGDTRLFQVYLKPNCDHEQLAESDSMGFVDFRELETPCRGKFLAWVRESITVNDCRRAATIMEVCSTAICPPLIAMSANSSRATSARTTPAGSSIGSRSSIQSRASAATSVSSNRFVGPSSRRTPSGTPQSSTSSRV
Turning to B1, the binding entry is “binds”.
